Test results from PubChem BioAssay AID2417 (National Center for Advancing Translational Sciences (NCATS), 2010).
Hit rate of the full screen: of about 140,000 compounds, about 4,300 (3.1%) were called active. This list was built around the results that the source calls inconclusive (neither active nor inactive); the mix of calls is not that of the screen.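 How the source made its calls: active means readout at or below -70, meaning at least 70% loss of cells showing the perinucleolar compartment, a nuclear body marking cancer cells; inconclusive means readout between -30 and a set limit; inactive means the rest.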

Experiment: High Content Assay for Compounds that inhibit the Assembly of the Perinucleolar Compartment;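 further: plate controls were DMSO wells for no effect and camptothecin positive control wells for full effect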
Conditions: PC3M PTB-GFP, PNC prevalence imaging, 16 h; at 10 µM; hits give low values
Summary of the method: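 Read-out is percentage of cells bearing a perinucleolar compartment, from automated 20x imaging of fixed, Hoechst-stained PC3M PTB-GFP cells. Cells were seeded 4 h, then exposed 16 h to compound (23 nl of library stock) in duplicate plates.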

| Compound | activity change (PNC), negative = inhibition |
| --- | --- |
| Cn1c(C(=O)OCC(=O)NCC2CCCO2)cc2sccc21 (configuration not stated) | inconclusive: -32.5% |
| CCC(NC(=O)/C(=C\c1ccc2c(c1)OCO2)NC(C)=O)C(=O)O (configuration not stated) | active: -125% |
| CCOc1cccc2c1OC(c1cc(OC)c(OC)c(OC)c1)N1N=C(c3ccc(C)o3)CC21 (configuration not stated) | inactive: 20.8% |
| O=C1OC(Nc2ccc(Cl)cn2)c2ccccc21 (configuration not stated) | inconclusive: -46.8% |
| CS(=O)(=O)N(CC(=O)N1CCOCC1)Cc1ccccc1 | inconclusive: -53.1% |
| O=C(Nc1ccc(F)cc1)c1sc(Cl)nc1-c1ccccc1 | inactive: -11.7% |
| N#CCSc1ccsc1C(=O)Nc1ccc(F)cc1 | inactive: 26% |
| Cc1cc(C)c(C)c(S(=O)(=O)NCC(=O)O)c1C | inconclusive: -42.4% |
| Cc1cc(C)nc(-n2ncc3c2CC(c2ccccc2)CC3=O)n1 (configuration not stated) | inactive: 16% |
| O=C(CSc1nc(Cc2ccccc2)nc2ccccc12)Nc1ccc2c(c1)OCCO2 | inconclusive: -44.2% |
| COC(=O)c1ccc(NC(=O)Cn2nnc3ccccc32)cc1 | inconclusive: -78.5% |
| COc1cccc(/C=N/n2c(N)c(S(=O)(=O)c3cccs3)c3nc4ccccc4nc32)c1 | inconclusive: -46.9% |
| COc1ccc(-c2cnnn2-c2ccc(NC(=O)c3ccc(S(=O)(=O)N4CCCCC4)cc3)cc2)cc1 | inconclusive: -41.2% |
| C=CCN1C(=O)C(O)(CC(=O)c2ccccc2)c2ccccc21 (configuration not stated) | inactive: -4.16% |
| Nc1ccc2c(c1)C(=O)N(CC1CCCO1)C2=O (configuration not stated) | inactive: 26.8% |
| CC(=O)Nc1cccc(NC(=O)CSc2nnc(Cc3cccn3C)n2-c2ccc(F)cc2)c1 | inconclusive: -31.5% |
| COc1cc(S(=O)(=O)N2CCN(Cc3ccc4c(c3)OCO4)CC2)c(C)cc1C | active: -119% |
| O=C(Cn1cnc2nc3n(c2c1=O)CCC3)NCc1ccccc1 | inconclusive: -33.7% |
| CCC(=O)N1CCc2cc(S(=O)(=O)NCCCN3CCN(Cc4ccccc4)CC3)ccc21 | inactive: 31.6% |
| C/C(=C/c1oc2ccc(O)cc2c1[N+](=O)[O-])N(C)C | inconclusive: -60.9% |
| CSc1nnc2c3cc(F)ccc3n(Cc3ccccc3)c2n1 | inactive: -5.75% |
| Cc1c(N2C(=O)CS/C2=N\N=C\c2ccc(Cl)cc2)c(=O)n(-c2ccccc2)n1C | inconclusive: -52% |
| O=[N+]([O-])c1ccc(Sc2ccc(Cl)c(Cl)c2)nc1 | inactive: -14.6% |
| CCOC(=O)c1cc2c(ccn2C)n1Cc1ccccc1C | inconclusive: -63.1% |

| Compound | activity change (PNC), negative = inhibition |
| --- | --- |
| Cc1cnc(C(=O)N2CCN(S(=O)(=O)c3ccc4ccccc4c3)CC2)cn1 | inconclusive: -42.6% |
| Cc1ccc(OCc2ccc(C(=O)Nc3nccs3)o2)cc1C | inconclusive: -38.5% |
| O=C(Cn1cc(S(=O)(=O)Cc2ccccc2)c2ccccc21)Nc1ccccc1 | active: -82.3% |
| COCCn1c(SCC(=O)c2ccc3c(c2)OCCO3)nnc1-c1ccoc1C | inconclusive: -62.3% |
| CCOc1cc(CNc2ccc(O)cc2)ccc1OCc1ccc(Cl)cc1Cl | inactive: -4.49% |
| CCNC(=O)c1c(NC(=O)C2COc3ccccc3O2)sc2c1CCCC2 (configuration not stated) | inconclusive: -30.4% |
| O=C(CC1NC2CCCCC2NC1=O)Nc1ccc2c(c1)OCO2 (configuration not stated) | inconclusive: -56.5% |
| Cc1ccc2[nH]c(-c3cccc(F)c3)cc(=O)c2c1 | inconclusive: -67% |
| O=C(Nc1ccc2oc(-c3ccccc3F)nc2c1)c1cncc(Br)c1 | inconclusive: -42.8% |
| CC(=O)c1ccc(OCC(O)CN2CCOCC2)cc1 (configuration not stated) | inconclusive: -68.1% |
| CCCC1=NN(C(=O)Cc2ccc(OC)cc2)C(O)(C(F)(F)F)C1 (configuration not stated) | inconclusive: -34.1% |
| C=C(C)Cn1c(NCCOC)nc2c1c(=O)[nH]c(=O)n2C | inactive: 245% |
| O=S(=O)(c1ccc2ccccc2c1)N1CCN(C2Cc3ccccc3C2)CC1 | inactive: -7.26% |
| O=C(O)Cc1ccc(C(=O)c2ccccc2)s1 | inactive: 30.3% |
| O=C1N=C(N2CCOCC2)CS1 | inconclusive: -74.9% |
| COc1ccc(CN2C(=O)c3ccccc3C2=O)cc1C(=O)OCC(=O)NC1CCCCC1 | inconclusive: -35.4% |
| Nc1nonc1C(=O)NCCNCc1cc(Br)ccc1OCc1ccc(F)cc1 | inconclusive: -66.3% |
| Cc1ccc(S(=O)(=O)NCc2nnc(SCC(=O)Nc3cccc(C)c3C)n2C)cc1 | inactive: 14.2% |
| O=C(c1ccc(C(F)(F)F)cc1)N1CCCCC1 | inactive: 43.4% |
| CCCc1cc(C(=O)Nc2ccccc2C(=O)OC)no1 | inactive: -8.58% |
| O=C(c1ccc(Br)cc1)N1CCCC1 | inactive: 19.2% |
| O=C(CSc1nnc2sc3ccccc3n12)c1ccco1 | inactive: -12.7% |
| CCOC(=O)C1=C(C)NC(=O)NC1c1ccccc1OCc1c(F)cccc1Cl (configuration not stated) | inactive: -18.7% |

Some values from the entries so far.
Value for Cn1c(C(=O)OCC(=O)NCC2CCCO2)cc2sccc21 (configuration not stated) under activity change (PNC), negative = inhibition: inconclusive: -32.5%
Value for O=C(CSc1nnc2sc3ccccc3n12)c1ccco1 under activity change (PNC), negative = inhibition: inactive: -12.7%
